Test results taken from publication PMC6039025.
Results are given in words; binding and its absence hold for the method and conditions named. Some binding calls cover weakened binding; strength is not graded here. Sequences can lack the tags named with a protein. Each block holds one binder with its values, some of them ahead of it.

Biological target: T1, Smc4-Q1377A, 3xStrepTagII-tagged (S. cerevisiae) (UniProt Q12267)
T1 sequence: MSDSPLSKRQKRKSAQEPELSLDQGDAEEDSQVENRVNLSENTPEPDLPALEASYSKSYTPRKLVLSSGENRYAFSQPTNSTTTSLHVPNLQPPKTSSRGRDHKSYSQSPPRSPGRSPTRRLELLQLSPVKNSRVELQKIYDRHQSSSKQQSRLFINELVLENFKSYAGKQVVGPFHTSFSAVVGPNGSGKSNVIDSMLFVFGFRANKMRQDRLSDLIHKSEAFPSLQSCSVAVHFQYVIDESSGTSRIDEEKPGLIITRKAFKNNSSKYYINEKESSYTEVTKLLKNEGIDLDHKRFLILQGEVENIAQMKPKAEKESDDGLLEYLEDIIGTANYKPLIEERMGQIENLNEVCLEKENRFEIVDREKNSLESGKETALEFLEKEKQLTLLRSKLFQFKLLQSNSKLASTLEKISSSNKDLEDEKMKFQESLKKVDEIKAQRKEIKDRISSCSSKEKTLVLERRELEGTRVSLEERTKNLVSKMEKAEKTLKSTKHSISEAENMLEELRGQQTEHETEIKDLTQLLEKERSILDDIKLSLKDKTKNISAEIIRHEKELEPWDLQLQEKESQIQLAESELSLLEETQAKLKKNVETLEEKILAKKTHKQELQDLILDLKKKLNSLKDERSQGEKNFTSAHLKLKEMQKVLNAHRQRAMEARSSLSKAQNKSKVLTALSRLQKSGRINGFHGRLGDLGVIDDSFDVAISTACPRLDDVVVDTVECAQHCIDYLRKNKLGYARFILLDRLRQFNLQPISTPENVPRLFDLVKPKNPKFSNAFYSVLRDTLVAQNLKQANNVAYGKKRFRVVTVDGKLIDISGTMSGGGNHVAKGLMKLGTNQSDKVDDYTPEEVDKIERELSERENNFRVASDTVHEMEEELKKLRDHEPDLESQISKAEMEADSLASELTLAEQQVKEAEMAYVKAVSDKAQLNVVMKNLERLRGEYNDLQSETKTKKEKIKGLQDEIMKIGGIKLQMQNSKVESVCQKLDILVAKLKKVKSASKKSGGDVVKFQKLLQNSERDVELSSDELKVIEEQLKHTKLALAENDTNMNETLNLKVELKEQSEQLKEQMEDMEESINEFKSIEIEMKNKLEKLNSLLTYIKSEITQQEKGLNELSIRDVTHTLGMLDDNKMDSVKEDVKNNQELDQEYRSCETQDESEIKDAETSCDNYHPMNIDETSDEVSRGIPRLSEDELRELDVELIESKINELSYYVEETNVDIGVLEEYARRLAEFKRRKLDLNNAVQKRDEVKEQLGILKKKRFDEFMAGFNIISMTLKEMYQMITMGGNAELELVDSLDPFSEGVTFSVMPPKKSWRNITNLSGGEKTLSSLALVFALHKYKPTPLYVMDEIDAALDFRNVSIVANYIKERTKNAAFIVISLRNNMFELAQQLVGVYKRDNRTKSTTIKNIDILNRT
Experiment: tandem affinity co-purification (Ni-NTA, Strep-Trap) + SEC; five condensin subunits co-overexpressed in yeast; extract in 500 mM NaCl, 10 mM Tris-HCl pH 8.0, 10% glycerol; Ni-NTA (His tags on Brn1 and Ycg1), then Strep-Trap HP (3xStrepTagII on Smc4), then Superose 6 10/300 in 200 mM NaCl, 50 mM Tris-HCl pH 8.0; subunits seen by SDS-PAGE and Coomassie staining

B2: Brn1-3xHA-12xHIS (protein, UniProt P38170 1-754)
chain: MTTQLRYENNDDDERVEYNLFTNRSTMMANFEEWIKMATDNKINSRNSWNFALIDYFYDLDVLKDGENNINFQKASATLDGCIKIYSSRVDSVTTETGKLLSGLAQRKTNGASNGDDSNGGNGEGLGGDSDEANIEIDPLTGMPISNDPDVNNTRRRVYNRVLETTLVEFETIKMKELDQELIIDPLFKKALVDFDEGGAKSLLLNTLNIDNTARVIFDASIKDTQNVGQGKLQRKEEELIERDSLVDDENEPSQSLISTRNDSTVNDSVISAPSMEDEILSLGMDFIKFDQIAVCEISGSIEQLRNVVEDINQAKDFIENVNNRFDNFLTEEELQAAVPDNAEDDSDGFDMGMQQELCYPDENHDNTSHDEQDDDNVNSTTGSIFEKDLMAYFDENLNRNWRGREHWKVRNFKKANLVNKESDLLEETRTTIGDTTDKNTTDDKSMDTKKKHKQKKVLEIDFFKTDDSFEDKVFASKGRTKIDMPIKNRKNDTHYLLPDDFHFSTDRITRLFIKPGQKMSLFSHRKHTRGDVSSGLFEKSTVSANHSNNDIPTIADEHFWADNYERKEQEEKEKEQSKEVGDVVGGALDNPFEDDMDGVDFNQAFEGTDDNEEASVKLDLQDDEDHKFPIRENKVTYSRVSKKVDVRRLKKNVWRSINNLIQEHDSRKNREQSSNDSETHTEDESTKELKFSDIIQGISKMYSDDTLKDISTSFCFICLLHLANEHGLQITHTENYNDLIVNYEDLATTQAAS
binding: binds

B3: Smc2 (protein, UniProt P38989 1-1170)
chain: MKVEELIIDGFKSYATRTVITDWDPQFNAITGLNGSGKSNILDAICFVLGIASMSTVRASSLQDLIYKRGQAGVTKASVTIVFDNTDKSNSPIGFTNSPQISVTRQVVLGGTSKYLINGHRAPQQSVLQLFQSVQLNINNPNFLIMQGKITKVLNMKPSEILSLIEEAAGTKMFEDRREKAERTMSKKETKLQENRTLLTEEIEPKLEKLRNEKRMFLEFQSTQTDLEKTERIVVSYEYYNIKHKHTSIRETLENGETRMKMLNEFVKKTSEEIDSLNEDVEEIKLQKEKELHKEGTISKLENKENGLLNEISRLKTSLSIKVENLNDTTEKSKALESEIASSSAKLIEKKSAYANTEKDYKMVQEQLSKQRDLYKRKEELVSTLTTGISSTGAADGGYNAQLAKAKTELNEVSLAIKKSSMKMELLKKELLTIEPKLKEATKDNELNVKHVKQCQETCDKLRARLVEYGFDPSRIKDLKQREDKLKSHYYQTCKNSEYLKRRVTNLEFNYTKPYPNFEASFVHGVVGQLFQIDNDNIRYATALQTCAGGRLFNVVVQDSQTATQLLERGRLRKRVTIIPLDKIYTRPISSQVLDLAKKIAPGKVELAINLIRFDESITKAMEFIFGNSLICEDPETAKKITFHPKIRARSITLQGDVYDPEGTLSGGSRNTSESLLVDIQKYNQIQKQIETIQADLNHVTEELQTQYATSQKTKTIQSDLNLSLHKLDLAKRNLDANPSSQIIARNEEILRDIGECENEIKTKQMSLKKCQEEVSTIEKDMKEYDSDKGSKLNELKKELKLLAKELEEQESESERKYDLFQNLELETEQLSSELDSNKTLLHNHLKSIESLKLENSDLEGKIRGVEDDLVTVQTELNEEKKRLMDIDDELNELETLIKKKQDEKKSSELELQKLVHDLNKYKSNTNNMEKIIEDLRQKHEFLEDFDLVRNIVKQNEGIDLDTYRERSKQLNEKFQELRKKVNPNIMNMIENVEKKEAALKTMIKTIEKDKMKIQETISKLNEYKRETLVKTWEKVTLDFGNIFADLLPNSFAKLVPCEGKDVTQGLEVKVKLGNIWKESLIELSGGQRSLIALSLIMALLQFRPAPMYILDEVDAALDLSHTQNIGHLIKTRFKGSQFIVVSLKEGMFANANRVFRTRFQDGTSVVSIM
binding: binds

Other lines, results leading:

binding: binds
B1: Ycs4 (protein, UniProt Q06156 1-1176)
chain: MSGFSLSEYLTKFQTTDRESYPRLQDPSRELNVIIDQLAVSPEQIDASPDSLEALIDLCHDFPHLTPKLQTQLSYLISSSLSNLSKDIKANLSSNVNFTEIGGLIPQWKRHLEEYGYLIQVLLTFLQDELHKVSSQSTNLNRSAKNSKNDSANVELFKRDCNQMENLLESITKLLEINLSKIFQTTPEKDLFIGLFTRPLFVLLEIEPVTKVSSLKMFIQRILAMCVKNHGQSSSIQSSLMTNLTYFLHLSVFNAELLKLLNDEYNYPQLTEDILKEISTRVFNAKDTTGPKAISNFLIKLSELSPGIMLRQMNLVITLLNNSSITLRCSVVEACGNIVAELAQDPQTMEHYKQQIAVLIELLEERFQDSNPYVRTKAIQGCSKICDLSSKFNKSKAKFTSLAVRSLQDRSSLVRRNSVKLLSKLLLKHPFKAIHGSQLRLSEWEEYLKGSESQLNSTLKKVESQETLNDTIERSLIEEEVEQDEGQCRTELEGSFNKSAELSRIENEVENINATNTSVLMKLKLMIVYYKDAISFIKEIHKSIELISNLLFSKNRNEVLESMDFLVLADAFDIELSEFGIKKMLHLVWMKGTNDEGTSISVHLIECYKQLFLTAPDSCNMQEKAAHIAKNLINLSIGASIADLASLEQLLGMMYEQKLIDQHVINILWAIYNSASKASMQKEQNVNNRDSEKGFSKEQIHGSIIILGMLSLADNEIALKGLESLLNIGLGAVGLKDLTLCRYSCLALERMVPKRSTIITKAINQELEDVAVKKLYAIIINYTKDNEYYPMCEQALSALFTISSKPDILATDLIREKTMMTFGKPEEEDSILSLEQSSRVVSLSQLLFIVGQVAIKTLVYLEKCEAEFKKRKIEAETRNGKVKNQGADVTNTTQDNGGDKELEMIGGTNEDDFTDAIQFVKENELLFGEKSILGKFCPIVEEIVSNSSRFSDPMLQRTATLCLEKLMCLSSKYCEKSLPLLITVMEKSPDPTIRSNAVLGLGDMAVCFNNLVDENTDYLYRRLHDENLMVQRTCLMTVTFLILAGQVKVKGQLGEMAKCLDNPDQGISDMCRLFFTELASKDNAIYNGFIDIFSNLSSDDLLGKESFKKIIKFLLTFIDKERHQKQLNEKLVGRLRKCETQKQWDDIAFVLNNLPYKNEDVTALLEQGFKVVSAKE

binding: binds
B4: Ycg1-3xFLAG-9xHIS (protein, UniProt Q06680 1-1035)
chain: MQDPDGIDINTKIFNSVAEVFQKAQGSYAGHRKHIAVLKKIQSKAVEQGYEDAFNFWFDKLVTKILPLKKNEIIGDRIVKLVAAFIASLERELILAKKQNYKLTNDEEGIFSRFVDQFIRHVLRGVESPDKNVRFRVLQLLAVIMDNIGEIDESLFNLLILSLNKRIYDREPTVRIQAVFCLTKFQDEEQTEHLTELSDNEENFEATRTLVASIQNDPSAEVRRAAMLNLINDNNTRPYILERARDVNIVNRRLVYSRILKSMGRKCFDDIEPHIFDQLIEWGLEDRELSVRNACKRLIAHDWLNALDGDLIELLEKLDVSRSSVCVKAIEALFQSRPDILSKIKFPESIWKDFTVEIAFLFRAIYLYCLDNNITEMLEENFPEASKLSEHLNHYILLRYHHNDISNDSQSHFDYNTLEFIIEQLSIAAERYDYSDEVGRRSMLTVVRNMLALTTLSEPLIKIGIRVMKSLSINEKDFVTMAIEIINDIRDDDIEKQEQEEKIKSKKINRRNETSVDEEDENGTHNDEVNEDEEDDNISSFHSAVENLVQGNGNVSESDIINNLPPEKEASSATIVLCLTRSSYMLELVNTPLTENILIASLMDTLITPAVRNTAPNIRELGVKNLGLCCLLDVKLAIDNMYILGMCVSKGNASLKYIALQVIVDIFSVHGNTVVDGEGKVDSISLHKIFYKVLKNNGLPECQVIAAEGLCKLFLADVFTDDDLFETLVLSYFSPINSSNEALVQAFAFCIPVYCFSHPAHQQRMSRTAADILLRLCVLWDDLQSSVIPEVDREAMLKPNIIFQQLLFWTDPRNLVNQTGSTKKDTVQLTFLIDVLKIYAQIEKKEIKKMIITNINAIFLSSEQDYSTLKELLEYSDDIAENDNLDNVSKNALDKLRNNLNSLIEEINERSETQTKDENNTANDQYSSILGNSFNKSSNDTIEHAADITDGNNTELTKTTVNISAVDNTTEQSNSRKRTRSEAEQIDTSKNLENMSIQDTSTVAKNVSFVLPDEKSDAMSIDEEDKDSESFSEVC
